Results as given in paper PMC7545198.
Results are given in words; binding and its absence hold for the method and conditions named. In cells and extracts the contact can be indirect. Binding can be weak; no strength is given. Where a sequence is shown, tags or fusion partners need not be part of it.

How the values were obtained:
[1] = target: Flag-Smad1; test: co-IP; lysates of stage 11.5 Xenopus embryos co-injected with Flag-smad1 and Myc-xbra mRNA, with or without HA-foxd4l1.1 or EnRfoxd4l1.1; immunoprecipitation with anti-Flag monoclonal antibody, western blot with anti-Myc
[2] = target: HA-Foxd4l1.1 (Xenopus); test: co-IP; lysates of stage 11.5 Xenopus embryos co-injected with HA-foxd4l1.1 (or truncations) and Myc-xbra mRNA; immunoprecipitation with anti-HA polyclonal antibody, western blot with anti-Myc

binding [1]: binds
binding [2]: binds
B1: Myc-Xbra (protein, UniProt P24781 1-432)
chain: MSATESCAKNVQYRVDHLLSAVENELQAGSEKGDPTEKELKVSLEERDLWTRFKELTNEMIVTKNGRRMFPVLKVSMSGLDPNAMYTVLLDFVAADNHRWKYVNGEWVPGGKPEPQAPSCVYIHPDSPNFGAHWMKDPVSFSKVKLTNKMNGGGQIMLNSLHKYEPRIHIVRVGGTQRMITSHSFPETQFIAVTAYQNEEITALKIKHNPFAKAFLDAKERNDYKDILDEGIDSQHSNFSQLGTWLIPNGGSLCSPNPHTQFGAPLSLSSPHGCERYSSLRNHRSAPYPSPYTHRNNSPNNLADNSSACLSMLQSHDNWSTLQMPAHTGMLPMSHSTGTPPPSSQYPSLWSVSNSAITPVSQSGGITNGISSQYLLGSTPHYSSLSHAVPSPSTGSPLYEHGAQTEIAENQYDVTAHSRLSSTWTPVAPPSV
